The values that follow come from the supplement of paper PMC12067093, “Discovery and optimisation of a covalent ligand for TRIM25 and its application to targeted protein ubiquitination” (Chemical Science, 2025).

Amino acid sequences for entries named in this document (tags omitted). A change or cut given only in a name is not applied to a line headed by its entry.
UniProt Q9NQT5, whole entry, looked up: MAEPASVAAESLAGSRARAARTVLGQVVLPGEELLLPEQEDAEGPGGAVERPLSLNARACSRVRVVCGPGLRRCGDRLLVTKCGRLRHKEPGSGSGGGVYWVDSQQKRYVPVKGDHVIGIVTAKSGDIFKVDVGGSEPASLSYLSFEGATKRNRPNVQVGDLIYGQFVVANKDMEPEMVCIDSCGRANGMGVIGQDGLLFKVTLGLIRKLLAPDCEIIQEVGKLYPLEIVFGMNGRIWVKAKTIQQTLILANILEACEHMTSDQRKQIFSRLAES
UniProt P84090, whole entry, looked up: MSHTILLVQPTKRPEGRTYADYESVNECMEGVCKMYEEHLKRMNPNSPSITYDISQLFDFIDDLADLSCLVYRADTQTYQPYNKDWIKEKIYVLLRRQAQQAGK
UniProt Q9UNN5: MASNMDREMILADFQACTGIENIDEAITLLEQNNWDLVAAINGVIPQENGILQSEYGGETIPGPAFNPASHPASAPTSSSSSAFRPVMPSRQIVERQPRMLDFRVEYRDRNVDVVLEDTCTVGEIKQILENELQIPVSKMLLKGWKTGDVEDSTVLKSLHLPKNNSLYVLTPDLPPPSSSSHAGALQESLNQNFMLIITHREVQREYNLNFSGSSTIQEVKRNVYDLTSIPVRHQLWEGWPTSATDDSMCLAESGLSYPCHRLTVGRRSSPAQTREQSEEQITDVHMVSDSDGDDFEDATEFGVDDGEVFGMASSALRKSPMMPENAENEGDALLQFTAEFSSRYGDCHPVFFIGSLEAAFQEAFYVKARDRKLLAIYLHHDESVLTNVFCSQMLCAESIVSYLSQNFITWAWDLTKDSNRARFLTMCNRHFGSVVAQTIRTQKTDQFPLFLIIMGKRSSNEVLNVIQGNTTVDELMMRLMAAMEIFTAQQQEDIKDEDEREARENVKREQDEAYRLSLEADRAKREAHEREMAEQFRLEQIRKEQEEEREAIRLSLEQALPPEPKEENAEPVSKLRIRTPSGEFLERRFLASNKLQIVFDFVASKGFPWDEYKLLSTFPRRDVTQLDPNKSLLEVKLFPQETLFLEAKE
UniProt Q01780: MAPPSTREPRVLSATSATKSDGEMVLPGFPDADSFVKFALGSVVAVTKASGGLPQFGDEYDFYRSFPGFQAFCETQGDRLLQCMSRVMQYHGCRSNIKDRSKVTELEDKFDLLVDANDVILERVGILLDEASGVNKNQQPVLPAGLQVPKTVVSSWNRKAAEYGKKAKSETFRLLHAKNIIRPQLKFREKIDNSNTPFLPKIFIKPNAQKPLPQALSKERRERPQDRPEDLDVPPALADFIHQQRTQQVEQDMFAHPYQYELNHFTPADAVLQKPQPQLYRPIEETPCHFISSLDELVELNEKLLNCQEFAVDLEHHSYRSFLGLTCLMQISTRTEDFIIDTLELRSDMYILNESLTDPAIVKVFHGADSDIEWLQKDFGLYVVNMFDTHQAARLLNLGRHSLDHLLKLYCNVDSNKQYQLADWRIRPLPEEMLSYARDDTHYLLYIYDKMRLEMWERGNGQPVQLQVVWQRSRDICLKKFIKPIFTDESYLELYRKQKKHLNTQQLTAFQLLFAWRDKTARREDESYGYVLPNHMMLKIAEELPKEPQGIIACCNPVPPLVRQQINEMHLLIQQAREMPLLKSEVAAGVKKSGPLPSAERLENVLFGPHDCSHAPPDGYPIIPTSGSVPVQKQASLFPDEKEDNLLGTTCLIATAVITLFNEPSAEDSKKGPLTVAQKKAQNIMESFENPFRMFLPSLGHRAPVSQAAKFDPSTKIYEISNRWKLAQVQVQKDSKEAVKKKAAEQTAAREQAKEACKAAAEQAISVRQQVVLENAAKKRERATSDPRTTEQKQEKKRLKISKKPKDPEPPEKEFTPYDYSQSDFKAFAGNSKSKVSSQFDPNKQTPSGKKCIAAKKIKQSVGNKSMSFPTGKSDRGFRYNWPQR
UniProt Q9UI08, whole entry: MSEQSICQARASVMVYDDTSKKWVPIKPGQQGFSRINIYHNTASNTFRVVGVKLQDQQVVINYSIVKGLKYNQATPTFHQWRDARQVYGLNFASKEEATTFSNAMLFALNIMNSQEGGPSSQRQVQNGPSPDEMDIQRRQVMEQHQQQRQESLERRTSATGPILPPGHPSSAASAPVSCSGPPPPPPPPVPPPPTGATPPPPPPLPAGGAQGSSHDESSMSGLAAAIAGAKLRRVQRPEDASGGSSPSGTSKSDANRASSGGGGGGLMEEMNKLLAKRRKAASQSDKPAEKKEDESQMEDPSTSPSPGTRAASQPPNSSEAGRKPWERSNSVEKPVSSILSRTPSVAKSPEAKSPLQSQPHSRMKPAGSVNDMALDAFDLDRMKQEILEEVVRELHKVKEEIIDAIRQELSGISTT
UniProt Q06265, whole entry, looked up: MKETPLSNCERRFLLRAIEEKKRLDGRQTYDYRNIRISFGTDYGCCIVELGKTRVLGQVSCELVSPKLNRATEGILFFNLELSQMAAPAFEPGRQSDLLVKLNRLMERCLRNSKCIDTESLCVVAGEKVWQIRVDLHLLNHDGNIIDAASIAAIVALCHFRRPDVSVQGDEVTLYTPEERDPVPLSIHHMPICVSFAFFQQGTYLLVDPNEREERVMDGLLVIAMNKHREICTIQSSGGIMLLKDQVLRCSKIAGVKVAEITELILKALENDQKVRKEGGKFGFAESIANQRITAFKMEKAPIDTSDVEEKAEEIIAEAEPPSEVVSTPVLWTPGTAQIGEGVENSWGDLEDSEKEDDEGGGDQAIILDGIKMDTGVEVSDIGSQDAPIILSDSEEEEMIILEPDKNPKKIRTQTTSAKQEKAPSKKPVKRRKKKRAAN
UniProt P15311, whole entry, looked up: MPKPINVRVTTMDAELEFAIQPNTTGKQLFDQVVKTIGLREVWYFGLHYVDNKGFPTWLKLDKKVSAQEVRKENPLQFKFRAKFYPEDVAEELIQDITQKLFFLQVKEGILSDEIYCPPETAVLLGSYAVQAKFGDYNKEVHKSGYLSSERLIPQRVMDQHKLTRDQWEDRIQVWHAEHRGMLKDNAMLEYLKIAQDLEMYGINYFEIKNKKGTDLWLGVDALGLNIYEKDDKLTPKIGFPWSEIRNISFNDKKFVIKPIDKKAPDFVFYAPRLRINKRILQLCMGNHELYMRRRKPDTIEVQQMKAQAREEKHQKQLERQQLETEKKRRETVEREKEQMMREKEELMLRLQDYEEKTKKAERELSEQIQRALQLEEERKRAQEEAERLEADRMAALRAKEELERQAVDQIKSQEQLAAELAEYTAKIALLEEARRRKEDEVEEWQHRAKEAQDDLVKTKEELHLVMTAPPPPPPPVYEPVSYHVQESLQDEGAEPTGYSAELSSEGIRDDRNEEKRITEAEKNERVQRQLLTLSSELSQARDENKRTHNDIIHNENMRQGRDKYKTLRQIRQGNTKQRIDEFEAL
UniProt Q96HE7: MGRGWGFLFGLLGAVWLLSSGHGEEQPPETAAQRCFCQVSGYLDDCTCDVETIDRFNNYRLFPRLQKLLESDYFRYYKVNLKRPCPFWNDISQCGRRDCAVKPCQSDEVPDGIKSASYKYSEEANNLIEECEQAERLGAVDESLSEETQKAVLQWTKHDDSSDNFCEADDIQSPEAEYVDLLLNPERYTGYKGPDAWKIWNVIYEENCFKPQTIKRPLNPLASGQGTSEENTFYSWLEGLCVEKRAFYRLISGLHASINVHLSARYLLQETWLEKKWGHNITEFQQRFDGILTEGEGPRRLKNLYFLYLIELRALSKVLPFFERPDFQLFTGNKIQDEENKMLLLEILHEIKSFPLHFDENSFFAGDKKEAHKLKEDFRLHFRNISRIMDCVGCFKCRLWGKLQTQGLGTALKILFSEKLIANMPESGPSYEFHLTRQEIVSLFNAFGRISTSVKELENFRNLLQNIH
UniProt Q9NZB2: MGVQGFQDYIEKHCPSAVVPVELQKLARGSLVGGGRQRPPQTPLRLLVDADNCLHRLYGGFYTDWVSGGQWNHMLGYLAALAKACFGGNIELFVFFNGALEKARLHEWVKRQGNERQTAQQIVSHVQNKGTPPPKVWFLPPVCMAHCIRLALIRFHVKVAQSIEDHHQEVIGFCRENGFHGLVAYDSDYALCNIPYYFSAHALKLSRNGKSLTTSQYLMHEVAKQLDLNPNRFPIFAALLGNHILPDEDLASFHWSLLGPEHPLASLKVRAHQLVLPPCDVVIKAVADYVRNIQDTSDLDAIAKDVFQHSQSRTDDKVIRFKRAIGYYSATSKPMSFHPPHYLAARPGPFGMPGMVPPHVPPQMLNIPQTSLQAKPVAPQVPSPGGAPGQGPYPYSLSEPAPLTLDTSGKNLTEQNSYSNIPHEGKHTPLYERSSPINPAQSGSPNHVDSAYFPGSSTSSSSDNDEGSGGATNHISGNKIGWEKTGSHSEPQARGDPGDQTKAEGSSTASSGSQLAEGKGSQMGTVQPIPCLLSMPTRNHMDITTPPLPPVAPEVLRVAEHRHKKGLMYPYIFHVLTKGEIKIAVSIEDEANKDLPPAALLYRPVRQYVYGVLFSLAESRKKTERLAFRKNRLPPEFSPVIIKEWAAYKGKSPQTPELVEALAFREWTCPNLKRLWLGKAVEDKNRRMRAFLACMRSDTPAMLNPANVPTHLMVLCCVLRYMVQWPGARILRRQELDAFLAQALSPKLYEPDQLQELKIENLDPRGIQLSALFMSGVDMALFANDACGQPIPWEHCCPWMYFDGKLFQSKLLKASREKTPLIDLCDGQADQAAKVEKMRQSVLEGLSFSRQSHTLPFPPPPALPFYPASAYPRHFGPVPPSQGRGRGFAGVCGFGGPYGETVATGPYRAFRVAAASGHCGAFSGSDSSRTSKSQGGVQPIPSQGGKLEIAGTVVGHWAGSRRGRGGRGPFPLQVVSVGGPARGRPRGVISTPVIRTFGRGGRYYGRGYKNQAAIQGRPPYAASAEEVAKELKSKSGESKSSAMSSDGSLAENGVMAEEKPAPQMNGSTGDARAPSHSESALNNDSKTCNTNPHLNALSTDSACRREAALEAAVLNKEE
UniProt P10768: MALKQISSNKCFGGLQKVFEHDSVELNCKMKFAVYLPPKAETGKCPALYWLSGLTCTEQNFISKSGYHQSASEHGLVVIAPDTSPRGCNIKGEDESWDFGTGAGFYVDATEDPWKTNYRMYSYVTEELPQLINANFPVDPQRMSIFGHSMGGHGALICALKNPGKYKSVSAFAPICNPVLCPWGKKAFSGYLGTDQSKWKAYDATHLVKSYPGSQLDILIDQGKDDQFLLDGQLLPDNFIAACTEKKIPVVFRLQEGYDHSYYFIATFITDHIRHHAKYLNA
UniProt Q96EK7: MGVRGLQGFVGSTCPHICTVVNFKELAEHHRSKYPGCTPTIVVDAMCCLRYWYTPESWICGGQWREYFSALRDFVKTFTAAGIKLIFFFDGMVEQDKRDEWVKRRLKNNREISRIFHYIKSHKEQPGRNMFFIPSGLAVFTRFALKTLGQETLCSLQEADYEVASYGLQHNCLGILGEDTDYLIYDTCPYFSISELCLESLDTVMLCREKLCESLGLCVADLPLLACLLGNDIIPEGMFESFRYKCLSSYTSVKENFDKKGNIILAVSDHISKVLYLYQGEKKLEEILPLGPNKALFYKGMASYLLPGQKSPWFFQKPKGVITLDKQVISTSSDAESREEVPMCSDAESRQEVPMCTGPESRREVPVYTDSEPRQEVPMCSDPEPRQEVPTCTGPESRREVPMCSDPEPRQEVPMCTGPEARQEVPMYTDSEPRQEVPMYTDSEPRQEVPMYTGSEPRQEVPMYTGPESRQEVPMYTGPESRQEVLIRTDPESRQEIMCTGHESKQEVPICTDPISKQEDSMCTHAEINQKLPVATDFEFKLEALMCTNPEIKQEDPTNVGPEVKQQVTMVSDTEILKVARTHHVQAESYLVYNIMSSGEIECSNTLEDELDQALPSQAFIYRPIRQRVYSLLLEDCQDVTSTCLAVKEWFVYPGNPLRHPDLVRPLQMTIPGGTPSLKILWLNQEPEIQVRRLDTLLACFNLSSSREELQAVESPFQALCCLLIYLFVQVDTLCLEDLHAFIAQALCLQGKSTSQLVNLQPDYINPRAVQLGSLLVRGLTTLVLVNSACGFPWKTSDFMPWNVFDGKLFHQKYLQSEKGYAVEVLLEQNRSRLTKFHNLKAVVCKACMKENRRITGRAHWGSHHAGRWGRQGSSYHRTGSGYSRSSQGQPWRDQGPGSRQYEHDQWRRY
UniProt P14921: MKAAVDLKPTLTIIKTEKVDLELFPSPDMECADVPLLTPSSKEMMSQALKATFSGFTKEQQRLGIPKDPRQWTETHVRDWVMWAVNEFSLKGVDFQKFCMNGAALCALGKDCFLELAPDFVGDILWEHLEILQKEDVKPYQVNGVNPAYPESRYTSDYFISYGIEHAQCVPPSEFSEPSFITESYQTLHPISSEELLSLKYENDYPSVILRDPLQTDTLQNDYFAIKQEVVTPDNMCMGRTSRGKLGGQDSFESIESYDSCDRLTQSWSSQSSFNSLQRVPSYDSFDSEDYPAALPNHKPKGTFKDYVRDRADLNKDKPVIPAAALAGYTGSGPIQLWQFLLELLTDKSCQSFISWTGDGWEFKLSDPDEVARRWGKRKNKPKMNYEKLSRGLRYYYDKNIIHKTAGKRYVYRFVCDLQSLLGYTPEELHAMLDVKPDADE

Compound in the assay: CC1Cc2ccccc2N1C(=O)C1CCCN(C1)C(=O)CCl (mixture of isomers) [TRIM25 ligand 11 (diastereomer mixture)]
Put plainly: probe-labelled cysteine peptide fold change vs DMSO (competition) (log2 fold change); higher = less target engagement (more negative = stronger competition). Particulars: THP-1, incubation time: 4 h.

The other results are listed elsewhere or left out.
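Also: competitive chemoproteomic profiling in live THP-1 cells with an iodoacetamide desthiobiotin (IA-DTB) probe, comparing probe-labelled peptide intensities in compound-treated cells against DMSO-treated controls.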

With “EXOSC3_Q9NQT5_257_TIQQTLILANILEACEHMTSDQR (UniProt Q9NQT5)”, the “probe-labelled cysteine peptide fold change” value (10 µM) is 0.115 and the “probe-labelled cysteine peptide fold change” value (50 µM) was 0.0197.
“ERH_P84090_28_TYADYESVNECMEGVCK (UniProt P84090)”: the “probe-labelled cysteine peptide fold change” value is -0.395 (10 µM) and -0.212 (50 µM).
“FAH_P16930_315_GEGMSQAATICK (UniProt P16930)”: the “probe-labelled cysteine peptide fold change” value by setting is: (10 µM) 0.0916; (50 µM) -0.0975.
Regarding “FAM126A_Q9BYI3_371_AASSTSQSGLSNSSHNCSNKPSIGK (UniProt Q9BYI3)”, the “probe-labelled cysteine peptide fold change” value reads like this: (10 µM) 0.161; (50 µM) -0.226.
In the case of “FAF1_Q9UNN5_250+260_HQLWEGWPTSATDDSMCLAESGLSYPCHR (UniProt Q9UNN5)”, the “probe-labelled cysteine peptide fold change” value (10 µM) was -0.487 and the “probe-labelled cysteine peptide fold change” value (50 µM) is -0.516.
As for “EZH2_Q15910_286_EQSLHSFHTLFCR (UniProt Q15910)”, the “probe-labelled cysteine peptide fold change” value by setting is: (10 µM) 0.0765; (50 µM) -0.00489.
Take “EXOSC10_Q01780_93_VMQYHGCR (UniProt Q01780)”: the “probe-labelled cysteine peptide fold change” value by setting is: (10 µM) -0.0603; (50 µM) -0.0302.
For the target “EVL_Q9UI08-2_9_ATSEQSICQAR (UniProt Q9UI08)”, the “probe-labelled cysteine peptide fold change” value runs as follows: (10 µM) 0.254; (50 µM) 0.305.
As for “EXOSC9_Q06265_46_ISFGTDYGCCIVELGK (UniProt Q06265)”, the “probe-labelled cysteine peptide fold change” value reads like this: (10 µM) 0.0206; (50 µM) 0.163.
Consider “EZR_P15311_284_ILQLCMGNHELYMR (UniProt P15311)”, for which the “probe-labelled cysteine peptide fold change” value (10 µM) is -0.0383 and the “probe-labelled cysteine peptide fold change” value (50 µM) is -0.0492.
As for “ERO1A_Q96HE7_85+94_RPCPFWNDISQCGR (UniProt Q96HE7)”, the “probe-labelled cysteine peptide fold change” value was 0.0778 (10 µM) and 0.165 (50 µM).
In the case of “EXOSC10_Q01780_327_SFLGLTCLMQISTR (UniProt Q01780)”, the “probe-labelled cysteine peptide fold change” value (10 µM) was 0.12 and the “probe-labelled cysteine peptide fold change” value (50 µM) stood at 0.268.
As to “EXOSC8_Q96B26_89_GYVVPNVDLPPLCSSR (UniProt Q96B26)”, the “probe-labelled cysteine peptide fold change” value (10 µM) was -0.12 and the “probe-labelled cysteine peptide fold change” value (50 µM) was -0.16.
Consider “FAM120A_Q9NZB2_1103_TCNTNPHLNALSTDSACR (UniProt Q9NZB2)”, for which the “probe-labelled cysteine peptide fold change” value is, setting by setting: (10 µM) 0.0512; (50 µM) -0.287.
For “ESD_P10768_176+181_SVSAFAPICNPVLCPWGK (UniProt P10768)” the same measures were -0.0306 and -0.166.
Take “FAM120B_Q96EK7_547_LEALMCTNPEIK (UniProt Q96EK7)”: the “probe-labelled cysteine peptide fold change” value (10 µM) is 0.23 and the “probe-labelled cysteine peptide fold change” value (50 µM) is -0.0523.
Turning to “ERCC1_P07992_274_EDLALCPGLGPQK (UniProt P07992)”, the “probe-labelled cysteine peptide fold change” value reads like this: (10 µM) 0.0528; (50 µM) 0.107.
In the case of “EZR_P15311_284_ILQLCMGNHELYMRR (UniProt P15311)”, the “probe-labelled cysteine peptide fold change” value is, setting by setting: (10 µM) -0.0493; (50 µM) 0.346.
With “ETS1_P14921_31_VDLELFPSPDMECADVPLLTPSSK (UniProt P14921)”, the “probe-labelled cysteine peptide fold change” value runs as follows: (10 µM) 0.328; (50 µM) 0.177.
Consider “EXOC5_O00471_542_TLNCMIGQMK (UniProt O00471)”, for which the “probe-labelled cysteine peptide fold change” value runs as follows: (10 µM) -0.0133; (50 µM) -0.012.
With “EXOSC3_Q9NQT5_257_TIQQTLILANILEACEHMTSDQRK (UniProt Q9NQT5)”, the “probe-labelled cysteine peptide fold change” value runs as follows: (10 µM) 0.147; (50 µM) 0.000894.
Consider “ERCC6L_Q2NKX8_1222_IQEALNCLVK (UniProt Q2NKX8)”, for which the “probe-labelled cysteine peptide fold change” value by setting is: (10 µM) 0.044; (50 µM) -0.208.
Consider “ETFA_P13804_155_TIYAGNALCTVK (UniProt P13804)”, for which the “probe-labelled cysteine peptide fold change” value is, setting by setting: (10 µM) 0.0296; (50 µM) -0.008.
In the same order, the values of “F8A3_P23610_110_LVCPAAYGEPLQAAASALGAAVR (UniProt P23610)” are -0.204 and -0.154.
As for “ESCO2_Q56NI9_182_ENNCHSAENNSNAPR (UniProt Q56NI9)”, the “probe-labelled cysteine peptide fold change” value by setting is: (10 µM) 0.14; (50 µM) 0.124.
In the same order, the values of “ETFB_P38117_66+71_EVIAVSCGPAQCQETIR (UniProt P38117)” are 0.198 and 0.0442.
In the case of “EWSR1_Q01844_384_QCGVVK (UniProt Q01844)”, the “probe-labelled cysteine peptide fold change” value (10 µM) was -0.164 and the “probe-labelled cysteine peptide fold change” value (50 µM) is -0.267.
Take “ESD_P10768_45+56_CPALYWLSGLTCTEQNFISK (UniProt P10768)”: the “probe-labelled cysteine peptide fold change” value was found to be 0.14 (10 µM) and 0.000345 (50 µM).
For the target “EXOSC7_Q15024_199_LSVENVPCIVTLCK (UniProt Q15024)”, the “probe-labelled cysteine peptide fold change” value reads like this: (10 µM) 0.0305; (50 µM) 0.0891.
For “FAM118A_Q9NWS6_55_SCIEAVIEAAEQLEVLHPGDVAEFR (UniProt Q9NWS6)” the same measures were 0.0464 and 0.136.
“EVI5L_Q96CN4_342_VIPHQFDSCPDK (UniProt Q96CN4)”: the “probe-labelled cysteine peptide fold change” value (10 µM) is -0.246 and the “probe-labelled cysteine peptide fold change” value (50 µM) was -0.197.
As to “FAM114A2_Q9NRY5_388_SLAELTACSIELFHK (UniProt Q9NRY5)”, the “probe-labelled cysteine peptide fold change” value by setting is: (10 µM) 0.0896; (50 µM) 0.101.
In the same order, the values of “EXOC4_Q96A65_54_CDRDLDELIVQHYTELTTAIR (UniProt Q96A65)” are 0.011 and -0.155.
Take “ESYT1_Q9BSJ8_522_AVYSTNCPVWEEAFR (UniProt Q9BSJ8)”: the “probe-labelled cysteine peptide fold change” value (10 µM) turned out to be 0.139 and the “probe-labelled cysteine peptide fold change” value (50 µM) turned out to be 0.00221.
For “FAF1_Q9UNN5_428_FLTMCNR (UniProt Q9UNN5)” the same measures were 0.0874 and 0.0084.
With “EXOSC9_Q06265_45+46_ISFGTDYGCCIVELGK (UniProt Q06265)”, the “probe-labelled cysteine peptide fold change” value (10 µM) is -0.00213 and the “probe-labelled cysteine peptide fold change” value (50 µM) is 0.172.
“ERO1A_Q96HE7_104_PCQSDEVPDGIK (UniProt Q96HE7)”: the “probe-labelled cysteine peptide fold change” value reads like this: (10 µM) -0.0251; (50 µM) 0.0181.
As for “EXOSC9_Q06265_158_VDLHLLNHDGNIIDAASIAAIVALCHFR (UniProt Q06265)”, the “probe-labelled cysteine peptide fold change” value was 0.16 (10 µM) and 0.256 (50 µM).
On to “EXOC6_Q8TAG9_561_KPHIGLTELVQIIINTTHLEQACK (UniProt Q8TAG9)”, for which the “probe-labelled cysteine peptide fold change” value reads like this: (10 µM) -0.0504; (50 µM) 0.134.
For “FAM120B_Q96EK7_404_EVPMCSDPEPR (UniProt Q96EK7)”, the “probe-labelled cysteine peptide fold change” value was -0.167 (10 µM) and -0.477 (50 µM).
In the same order, the values of “ERO1A_Q96HE7_208_IWNVIYEENCFKPQTIK (UniProt Q96HE7)” are -0.0676 and 0.0513.
As for “FAM111B_Q6SJ93_183_QCENPNMECILFHVVAIGR (UniProt Q6SJ93)”, the “probe-labelled cysteine peptide fold change” value came to 0.00298 (10 µM) and 0.0622 (50 µM).
